# The other results are listed elsewhere or left out. Residues, ends and D or L forms follow the SMILES beside them. *: point of attachment. Cbz = O=C(OCc1ccccc1)*
# Amino acid sequences for entries named in this document (tags omitted). A change or cut given only in a name is not applied to a line headed by its entry.
# UniProt Q9NS73: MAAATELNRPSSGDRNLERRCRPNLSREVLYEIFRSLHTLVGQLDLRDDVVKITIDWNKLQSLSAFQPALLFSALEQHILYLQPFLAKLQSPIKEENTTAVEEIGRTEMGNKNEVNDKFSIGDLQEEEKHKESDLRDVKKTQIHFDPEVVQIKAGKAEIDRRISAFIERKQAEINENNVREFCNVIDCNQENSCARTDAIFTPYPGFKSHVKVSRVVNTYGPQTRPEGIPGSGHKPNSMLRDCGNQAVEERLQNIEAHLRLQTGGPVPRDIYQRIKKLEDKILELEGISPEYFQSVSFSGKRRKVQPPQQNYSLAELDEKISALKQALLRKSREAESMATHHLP
# UniProt Q9Y2X0: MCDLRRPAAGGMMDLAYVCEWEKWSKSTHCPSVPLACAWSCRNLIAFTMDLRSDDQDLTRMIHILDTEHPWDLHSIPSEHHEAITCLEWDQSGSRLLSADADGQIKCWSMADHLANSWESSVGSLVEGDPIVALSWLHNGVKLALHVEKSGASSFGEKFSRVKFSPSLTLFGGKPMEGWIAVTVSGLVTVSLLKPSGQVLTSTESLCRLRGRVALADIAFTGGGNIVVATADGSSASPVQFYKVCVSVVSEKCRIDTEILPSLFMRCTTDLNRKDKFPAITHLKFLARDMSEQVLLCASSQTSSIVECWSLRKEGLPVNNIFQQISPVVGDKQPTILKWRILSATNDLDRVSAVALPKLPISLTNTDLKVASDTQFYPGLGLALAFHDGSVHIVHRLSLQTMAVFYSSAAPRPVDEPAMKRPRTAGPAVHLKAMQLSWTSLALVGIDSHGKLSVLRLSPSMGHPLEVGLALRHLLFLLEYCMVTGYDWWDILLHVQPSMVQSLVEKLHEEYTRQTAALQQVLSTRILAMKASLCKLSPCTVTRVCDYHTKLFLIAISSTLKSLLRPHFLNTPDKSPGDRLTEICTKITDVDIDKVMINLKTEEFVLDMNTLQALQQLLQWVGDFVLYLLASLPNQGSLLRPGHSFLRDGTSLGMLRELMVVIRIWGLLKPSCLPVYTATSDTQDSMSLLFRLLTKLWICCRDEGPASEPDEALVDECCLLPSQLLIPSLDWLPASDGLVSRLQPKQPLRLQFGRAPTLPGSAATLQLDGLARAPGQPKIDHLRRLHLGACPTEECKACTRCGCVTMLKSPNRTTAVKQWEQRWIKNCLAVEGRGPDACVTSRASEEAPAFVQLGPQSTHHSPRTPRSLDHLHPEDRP
# UniProt Q93074, whole entry, looked up: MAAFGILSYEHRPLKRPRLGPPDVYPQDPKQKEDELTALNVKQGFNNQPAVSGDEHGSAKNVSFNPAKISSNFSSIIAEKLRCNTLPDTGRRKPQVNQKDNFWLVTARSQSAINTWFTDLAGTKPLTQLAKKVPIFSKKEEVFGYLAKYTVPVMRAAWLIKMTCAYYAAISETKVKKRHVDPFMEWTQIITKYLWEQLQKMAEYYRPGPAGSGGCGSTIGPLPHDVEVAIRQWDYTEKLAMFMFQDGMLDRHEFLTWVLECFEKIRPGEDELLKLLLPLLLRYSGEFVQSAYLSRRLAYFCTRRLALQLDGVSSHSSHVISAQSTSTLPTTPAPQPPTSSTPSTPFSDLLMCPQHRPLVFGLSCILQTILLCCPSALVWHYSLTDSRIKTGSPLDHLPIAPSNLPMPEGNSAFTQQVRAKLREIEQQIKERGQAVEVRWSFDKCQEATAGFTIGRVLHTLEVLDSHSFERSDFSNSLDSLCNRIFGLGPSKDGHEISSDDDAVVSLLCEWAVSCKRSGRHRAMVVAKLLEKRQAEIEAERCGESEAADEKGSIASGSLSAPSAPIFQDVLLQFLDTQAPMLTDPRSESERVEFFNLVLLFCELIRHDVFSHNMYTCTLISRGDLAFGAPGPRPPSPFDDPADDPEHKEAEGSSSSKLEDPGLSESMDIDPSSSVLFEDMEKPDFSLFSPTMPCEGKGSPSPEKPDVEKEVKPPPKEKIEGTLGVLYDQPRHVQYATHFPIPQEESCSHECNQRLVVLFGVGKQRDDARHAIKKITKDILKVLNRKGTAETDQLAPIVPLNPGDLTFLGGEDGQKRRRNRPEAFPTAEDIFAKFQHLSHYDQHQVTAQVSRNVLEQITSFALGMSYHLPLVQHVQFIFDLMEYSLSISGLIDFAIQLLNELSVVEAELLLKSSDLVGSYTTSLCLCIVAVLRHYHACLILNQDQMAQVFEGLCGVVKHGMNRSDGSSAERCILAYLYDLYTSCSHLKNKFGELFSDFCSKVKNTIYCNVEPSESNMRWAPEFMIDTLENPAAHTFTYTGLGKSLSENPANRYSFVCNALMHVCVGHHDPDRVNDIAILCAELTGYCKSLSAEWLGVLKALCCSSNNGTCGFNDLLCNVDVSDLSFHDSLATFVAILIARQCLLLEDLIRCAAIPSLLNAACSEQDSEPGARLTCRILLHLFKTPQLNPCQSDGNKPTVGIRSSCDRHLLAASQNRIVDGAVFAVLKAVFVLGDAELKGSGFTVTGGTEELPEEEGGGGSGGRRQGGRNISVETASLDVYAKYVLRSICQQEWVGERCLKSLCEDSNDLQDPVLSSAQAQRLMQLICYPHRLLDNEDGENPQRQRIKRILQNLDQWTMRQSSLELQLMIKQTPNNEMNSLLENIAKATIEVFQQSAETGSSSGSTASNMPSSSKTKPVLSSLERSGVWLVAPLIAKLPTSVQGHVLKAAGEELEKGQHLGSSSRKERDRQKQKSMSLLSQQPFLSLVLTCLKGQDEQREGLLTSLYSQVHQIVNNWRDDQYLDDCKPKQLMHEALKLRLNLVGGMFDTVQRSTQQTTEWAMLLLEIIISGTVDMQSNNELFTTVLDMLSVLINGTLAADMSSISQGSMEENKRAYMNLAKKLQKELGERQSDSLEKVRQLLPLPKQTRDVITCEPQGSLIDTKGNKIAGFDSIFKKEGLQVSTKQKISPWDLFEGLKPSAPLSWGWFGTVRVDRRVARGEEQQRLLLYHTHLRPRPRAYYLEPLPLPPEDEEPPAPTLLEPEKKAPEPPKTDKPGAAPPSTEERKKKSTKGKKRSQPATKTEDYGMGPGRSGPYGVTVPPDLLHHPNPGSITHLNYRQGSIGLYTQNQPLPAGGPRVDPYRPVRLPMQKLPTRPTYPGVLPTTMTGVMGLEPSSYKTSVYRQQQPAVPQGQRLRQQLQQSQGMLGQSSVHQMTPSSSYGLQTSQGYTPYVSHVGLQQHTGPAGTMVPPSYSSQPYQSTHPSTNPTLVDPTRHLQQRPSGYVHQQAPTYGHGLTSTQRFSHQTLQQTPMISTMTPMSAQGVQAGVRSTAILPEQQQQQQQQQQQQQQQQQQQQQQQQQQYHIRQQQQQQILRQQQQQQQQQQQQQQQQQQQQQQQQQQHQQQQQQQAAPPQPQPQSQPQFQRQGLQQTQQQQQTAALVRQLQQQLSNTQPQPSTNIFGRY
# UniProt Q9NVC6: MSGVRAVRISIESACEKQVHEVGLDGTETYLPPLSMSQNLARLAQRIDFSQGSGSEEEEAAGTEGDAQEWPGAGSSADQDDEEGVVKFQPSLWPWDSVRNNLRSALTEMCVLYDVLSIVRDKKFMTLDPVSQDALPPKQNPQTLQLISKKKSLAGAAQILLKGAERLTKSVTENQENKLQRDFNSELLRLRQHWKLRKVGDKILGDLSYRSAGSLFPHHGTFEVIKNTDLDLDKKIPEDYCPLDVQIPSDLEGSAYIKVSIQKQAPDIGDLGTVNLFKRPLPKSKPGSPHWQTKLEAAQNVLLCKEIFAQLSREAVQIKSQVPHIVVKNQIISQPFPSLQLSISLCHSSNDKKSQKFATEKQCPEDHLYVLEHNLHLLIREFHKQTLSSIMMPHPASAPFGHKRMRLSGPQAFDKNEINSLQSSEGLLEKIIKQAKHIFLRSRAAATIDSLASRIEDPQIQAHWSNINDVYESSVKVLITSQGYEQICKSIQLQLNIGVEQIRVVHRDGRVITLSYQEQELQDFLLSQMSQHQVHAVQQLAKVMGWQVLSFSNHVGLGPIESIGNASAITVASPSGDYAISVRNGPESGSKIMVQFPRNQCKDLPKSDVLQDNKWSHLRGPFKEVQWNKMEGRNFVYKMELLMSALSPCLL
# UniProt Q96PE7: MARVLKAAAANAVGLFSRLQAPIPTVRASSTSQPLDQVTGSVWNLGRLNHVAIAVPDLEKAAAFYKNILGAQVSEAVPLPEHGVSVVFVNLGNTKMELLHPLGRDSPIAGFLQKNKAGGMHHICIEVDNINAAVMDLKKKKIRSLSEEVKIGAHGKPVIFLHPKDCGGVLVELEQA
# UniProt Q5SR56: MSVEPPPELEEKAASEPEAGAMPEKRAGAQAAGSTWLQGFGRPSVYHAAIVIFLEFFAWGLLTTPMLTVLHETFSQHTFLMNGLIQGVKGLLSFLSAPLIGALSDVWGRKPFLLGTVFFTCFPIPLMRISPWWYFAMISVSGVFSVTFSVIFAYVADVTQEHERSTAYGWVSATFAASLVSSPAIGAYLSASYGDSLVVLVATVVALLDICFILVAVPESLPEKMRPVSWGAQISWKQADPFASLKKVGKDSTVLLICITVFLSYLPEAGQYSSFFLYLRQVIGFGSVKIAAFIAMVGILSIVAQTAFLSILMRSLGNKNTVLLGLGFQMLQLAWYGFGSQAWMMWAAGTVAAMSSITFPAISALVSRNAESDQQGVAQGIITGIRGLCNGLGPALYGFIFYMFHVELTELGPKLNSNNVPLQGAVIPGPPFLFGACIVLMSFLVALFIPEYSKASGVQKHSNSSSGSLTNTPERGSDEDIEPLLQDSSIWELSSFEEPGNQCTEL
# UniProt Q8NE86: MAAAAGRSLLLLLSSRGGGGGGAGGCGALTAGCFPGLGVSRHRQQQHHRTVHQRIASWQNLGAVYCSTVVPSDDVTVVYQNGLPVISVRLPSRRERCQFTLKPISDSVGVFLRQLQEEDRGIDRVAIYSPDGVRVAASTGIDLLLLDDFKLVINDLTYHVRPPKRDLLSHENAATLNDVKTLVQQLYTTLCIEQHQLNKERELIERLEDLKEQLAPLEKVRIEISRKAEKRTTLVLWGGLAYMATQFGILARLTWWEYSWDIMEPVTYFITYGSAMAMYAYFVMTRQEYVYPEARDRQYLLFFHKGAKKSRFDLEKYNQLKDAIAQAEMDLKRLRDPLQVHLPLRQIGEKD
# UniProt O75586: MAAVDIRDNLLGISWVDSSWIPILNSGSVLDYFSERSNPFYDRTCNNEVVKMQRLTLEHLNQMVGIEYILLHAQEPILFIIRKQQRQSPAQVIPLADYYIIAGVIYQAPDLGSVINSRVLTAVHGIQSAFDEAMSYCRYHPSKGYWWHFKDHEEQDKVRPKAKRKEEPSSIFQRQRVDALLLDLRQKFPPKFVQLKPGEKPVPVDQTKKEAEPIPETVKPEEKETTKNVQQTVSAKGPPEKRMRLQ
# UniProt Q9Y3C7: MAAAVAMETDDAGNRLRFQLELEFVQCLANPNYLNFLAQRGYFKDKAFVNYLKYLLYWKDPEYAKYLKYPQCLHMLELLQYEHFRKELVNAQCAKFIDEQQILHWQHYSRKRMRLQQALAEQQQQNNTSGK
# UniProt Q5VZF2: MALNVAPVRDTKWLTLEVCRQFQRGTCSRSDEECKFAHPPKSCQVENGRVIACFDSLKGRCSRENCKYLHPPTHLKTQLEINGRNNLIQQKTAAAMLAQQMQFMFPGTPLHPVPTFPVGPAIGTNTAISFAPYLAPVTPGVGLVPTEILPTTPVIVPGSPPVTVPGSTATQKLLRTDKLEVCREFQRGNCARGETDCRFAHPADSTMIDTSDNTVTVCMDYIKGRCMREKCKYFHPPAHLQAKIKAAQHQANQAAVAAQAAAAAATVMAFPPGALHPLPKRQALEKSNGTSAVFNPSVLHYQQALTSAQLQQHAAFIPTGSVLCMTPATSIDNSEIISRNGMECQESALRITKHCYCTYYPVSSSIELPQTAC
# UniProt Q9P086: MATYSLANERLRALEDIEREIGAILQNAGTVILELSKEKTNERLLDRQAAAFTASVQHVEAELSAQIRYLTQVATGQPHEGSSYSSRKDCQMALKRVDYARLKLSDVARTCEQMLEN
# UniProt Q9GZU1, whole entry, looked up: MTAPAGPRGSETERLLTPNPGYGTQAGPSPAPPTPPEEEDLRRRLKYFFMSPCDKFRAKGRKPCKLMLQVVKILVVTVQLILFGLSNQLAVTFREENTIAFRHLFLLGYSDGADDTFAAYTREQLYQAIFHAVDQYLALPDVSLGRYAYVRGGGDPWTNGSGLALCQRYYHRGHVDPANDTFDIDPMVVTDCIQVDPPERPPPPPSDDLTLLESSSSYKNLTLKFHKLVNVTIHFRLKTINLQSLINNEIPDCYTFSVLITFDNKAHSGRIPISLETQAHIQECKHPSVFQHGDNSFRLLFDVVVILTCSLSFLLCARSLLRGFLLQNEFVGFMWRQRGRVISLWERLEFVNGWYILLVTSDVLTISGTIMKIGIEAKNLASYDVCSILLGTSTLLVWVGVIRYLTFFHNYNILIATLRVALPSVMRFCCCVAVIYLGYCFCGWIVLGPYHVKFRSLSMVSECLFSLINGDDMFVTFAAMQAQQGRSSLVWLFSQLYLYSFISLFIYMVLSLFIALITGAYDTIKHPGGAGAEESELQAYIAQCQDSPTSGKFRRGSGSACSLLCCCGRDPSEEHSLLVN
# Assays:
# Experiment in all cases: log2 fold change, soluble protein after heating vs DMSO (PISA); higher = thermal stabilisation; K562 cells, 10 uM, 30 min; active = over 0.2 and 3.5 SD of the protein, either way, in both replicates (recomputed)
# [1] = compound: C#Cc1cccc(Nc2ncnc3cc(OCCOC)c(OCCOC)cc23)c1 [erlotinib]
# In short: (§1)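 Thermal stability values are relative to control samples and come from duplicates. They are expressed as log2 fold changes. For measurement, K562 cells (2×10^6 cells/mL) received 10 μM compound for 30 min, and aliquots were heated for 3 min over 48°C-58°C, pooled, and extracted at 4°C in PBS with 0.5% NP-40. Soluble protein, the supernatant after 21,000xg for 90 min, was quantified by TMTpro 16plex LC-MS/MS with equalised channel sums.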
# [2] = compound: C/C(=N\NC(=O)C1=CC(=CC=C1)S(=O)(=O)N2CCOCC2)/C3=C(C=CC(=C3)Cl)O
# In short: as §1
# [3] = compound: C1=CC(=CC=C1C2=NC3=C(N2)C=C(C=C3)C(=O)N)OC4=CC=C(C=C4)Cl
# In short: as §1
# [4] = compound: C1=CC2=C(C=CC(=C2)/C=C\3/C(=O)NC(=NCC4=CC=CS4)S3)N=C1
# In short: as §1
# [5] = compound: C1=CC2=NC=CN=C2C=C1/C=C/3\C(=O)NC(=O)S3
# In short: as §1
# [6] = compound: C1=CC=C(C=C1)C2=NC(=C(N2)C3=CC=NC=C3)C4=CC(=C(C=C4)Cl)O
# In short: as §1
# [7] = compound: C1=CC=C2C(=C1)C3=NNC4=CC=CC(=C43)C2=O
# In short: as §1
# [8] = compound: C1CCN(C1)C(=O)NC2=CC=CC(=C2)NC3=NC=C(C(=N3)NCCC4=CN=CN4)Br
# In short: as §1
# [9] = compound: C1CN(CCC1(CC2=CC=C(C=C2)Cl)N)C3=NC=NC4=C3C=CN4
# In short: as §1
# [10] = compound: C1COCCN1CCN2C3=CC=CC=C3N=C2NC(=O)C4=CC(=CC=C4)[N+](=O)[O-] [IRAK-1-4 Inhibitor I]
# In short: as §1
# [11] = compound: C=CC(=O)N1CCC[C@@H](n2nc(-c3ccc(Oc4ccccc4)cc3)c3c(N)ncnc32)C1 [ibrutinib]
# In short: as §1
# [12] = compound: CC(=O)c1cnc2ccc(-c3cc(Cl)c(O)c(Cl)c3)nc2c1N[C@H]1CC[C@H](CN(C)C)CC1
# In short: as §1
# [13] = compound: CC(C)(C)Cn1c(N)nc2ccc(-c3[nH]c(C(C)(C)C)nc3-c3ccc(F)cc3)nc21 [ralimetinib]
# In short: as §1
# [14] = compound: CC(C)C1=C2N=C(C=C(N2N=C1)NCC3=CC=CC=C3)NCCCCCCN
# In short: as §1
# [15] = compound: CC(C)C[C@@H](C=O)NC(=O)[C@H](CC(C)C)NC(=O)[C@H](CC(C)C)NC(=O)OCc1ccccc1
# In short: as §1
# [16] = compound: CC(C)N(C[C@H]1O[C@@H](n2cnc3c(N)ncnc32)[C@H](O)[C@@H]1O)[C@H]1C[C@@H](CCc2nc3cc(C(C)(C)C)ccc3[nH]2)C1 [pinometostat]
# In short: as §1
# [17] = compound: CC1=C(C2=C(C=C1)C(=O)C3=CC=CC=C3N2CCCN)C
# In short: as §1
# [18] = compound: C1=CC(=C(C=C1Cl)C2=NC3=NC=CN=C3C(=N2)NC4=CC=NC=C4)F
# In short: as §1
# [19] = compound: CC(C)(O)CC(=O)NCCn1ccc2ncnc(Nc3ccc(Oc4cccc(C(F)(F)F)c4)c(Cl)c3)c21
# In short: as §1
# [20] = compound: CC1=C(C(CC(=O)N1)C2=CC=C(C=C2)C(F)(F)F)C(=O)NC3=C(C=C4C(=C3)C=NN4)F
# In short: as §1
Target,log2 fold change [1],log2 fold change [2],log2 fold change [3],log2 fold change [4],log2 fold change [5],log2 fold change [6],log2 fold change [7],log2 fold change [8],log2 fold change [9],log2 fold change [10],log2 fold change [11],log2 fold change [12],log2 fold change [13],log2 fold change [14],log2 fold change [15],log2 fold change [16],log2 fold change [17],log2 fold change [18],log2 fold change [19],log2 fold change [20]
MBIP (UniProt Q9NS73),inactive: 0.033,inactive: -0.115,inactive: -0.298,inactive: -0.02,inactive: -0.01,inactive: -0.029,inactive: -0.052,inactive: -0.071,inactive: -0.103,inactive: 0.084,inactive: 0.115,inactive: 0.145,inactive: -0.007,inactive: -0.001,inactive: -0.077,inactive: -0.022,inactive: 0.022,,,
MFSD1 isoform 6 (UniProt Q9H3U5),inactive: -0.011,inactive: 0.011,inactive: 0.029,inactive: -0.002,inactive: -0.009,inactive: 0.018,inactive: 0.014,inactive: 0.059,inactive: 0.084,,inactive: 0.017,inactive: 0.025,inactive: -0.172,active: -0.427,inactive: 0.043,,inactive: 0.08,inactive: 0.006,inactive: 0.055,
MFSD6 (UniProt Q6ZSS7),inactive: -0.021,inactive: -0.033,inactive: -0.004,inactive: 0.004,inactive: 0.094,,inactive: -0.106,,,,inactive: -0.11,inactive: -0.106,,inactive: 0.141,,,,inactive: 0.03,inactive: -0.043,inactive: 0.018
MED16 (UniProt Q9Y2X0),inactive: -0.019,inactive: -0.085,inactive: -0.038,inactive: 0.038,inactive: 0.051,inactive: -0.067,inactive: -0.155,inactive: 0.034,inactive: -0.046,inactive: 0,inactive: 0.003,active: -0.358,inactive: 0.033,inactive: -0.008,inactive: 0.064,inactive: 0.112,inactive: 0.17,inactive: 0.065,inactive: -0.029,
MED12 isoform 2 (UniProt Q93074),inactive: 0.022,inactive: 0.04,inactive: 0.188,inactive: 0.101,inactive: 0.121,inactive: 0.012,inactive: -0.361,inactive: 0.193,inactive: -0.11,inactive: -0.057,inactive: -0.098,active: -0.747,inactive: -0.05,inactive: -0.291,inactive: -0.005,inactive: 0.251,inactive: -0.04,inactive: -0.031,inactive: -0.024,
MED17 (UniProt Q9NVC6),inactive: 0.017,inactive: 0.064,inactive: 0.072,inactive: -0.083,,inactive: 0.094,inactive: -0.034,inactive: -0.194,inactive: -0.047,inactive: -0.076,,active: -0.371,inactive: 0.12,inactive: -0.209,inactive: 0.119,inactive: 0.124,inactive: 0.182,inactive: -0.077,inactive: -0.022,
MERTK (UniProt Q12866),inactive: 0.113,inactive: 0.019,inactive: -0.031,inactive: -0.08,inactive: 0.041,,inactive: 0.092,inactive: 0.011,inactive: 0.035,inactive: 0.041,inactive: -0.027,inactive: 0.019,,inactive: -0.035,,inactive: 0.017,inactive: -0.092,inactive: 0.035,inactive: 0.036,inactive: -0.01
MCEE (UniProt Q96PE7),inactive: 0.005,inactive: 0.021,inactive: -0.052,inactive: 0.058,inactive: 0.022,inactive: -0.021,inactive: -0.053,inactive: -0.025,inactive: -0.023,,inactive: 0.021,inactive: 0.05,inactive: 0.083,inactive: 0.029,inactive: 0.026,,inactive: 0.085,inactive: 0.014,inactive: -0.004,inactive: 0.024
MFSD14B (UniProt Q5SR56),inactive: -0.047,inactive: -0.023,inactive: 0.049,inactive: -0.041,,,inactive: 0.003,inactive: -0.02,inactive: 0.013,inactive: 0.012,,inactive: -0.022,,inactive: -0.006,,inactive: -0.316,inactive: -0.051,inactive: -0.016,inactive: -0.003,inactive: 0.111
MCU (UniProt Q8NE86),inactive: 0.007,inactive: 0.042,inactive: 0.008,inactive: 0.027,inactive: 0.013,inactive: 0.001,inactive: 0.014,inactive: 0.004,inactive: 0.013,inactive: 0.06,inactive: -0.026,inactive: -0.036,inactive: -0.042,inactive: -0.122,inactive: -0.026,inactive: 0.03,inactive: 0.017,inactive: 0.083,inactive: -0.108,
MED6 (UniProt O75586),inactive: 0.054,,inactive: 0.099,,inactive: 0.101,,,,,inactive: -0.165,inactive: -0.033,,,inactive: -0.479,,inactive: 0.087,,inactive: -0.341,inactive: 0.278,inactive: 0.038
MED31 (UniProt Q9Y3C7),,,,,,inactive: -0.02,,,,inactive: 0.003,,,inactive: -0.056,,inactive: 0.069,inactive: 0.041,,,,inactive: -0.085
MBNL2 (UniProt Q5VZF2),inactive: 0.132,inactive: -0.013,inactive: -0.053,inactive: -0.053,,inactive: -0.027,inactive: -0.013,,,inactive: 0.095,,inactive: 0.047,inactive: 0.027,inactive: -0.02,inactive: 0.099,inactive: -0.029,,,,
MCOLN3 (UniProt Q8TDD5),inactive: 0.244,,inactive: -0.016,,inactive: 0.112,inactive: -0.049,,inactive: 0.053,inactive: 0.107,,inactive: -0.17,,inactive: -0.057,inactive: 0.019,inactive: 0.029,,inactive: 0.08,,,
MED11 (UniProt Q9P086),inactive: -0.086,,inactive: -0.029,,,,,inactive: 0,inactive: -0.192,inactive: -0.063,,,,inactive: -0.002,,inactive: -0.115,inactive: 0.235,,,
MEGF10 (UniProt Q96KG7),,,,,,,,inactive: 0.096,inactive: 0.068,,,,,,,,inactive: -0.176,,,
MAST2 (UniProt Q6P0Q8),,,,,,inactive: -0.074,,,,,,,inactive: -0.188,,inactive: 0.074,,,,,
MCOLN1 (UniProt Q9GZU1),inactive: -0.011,,inactive: 0.009,,inactive: -0.014,inactive: 0.076,,,,inactive: -0.055,inactive: -0.039,,inactive: 0.042,inactive: -0.244,inactive: 0.177,inactive: -0.068,,inactive: 0.225,inactive: 0.12,inactive: 0.031
MFSD12 isoform 3 (UniProt Q6NUT3),inactive: 0.062,inactive: -0.062,inactive: 0.077,inactive: -0.035,,,inactive: 0.024,inactive: -0.088,inactive: -0.099,,,inactive: -0.002,,active: -0.474,,,inactive: -0.066,,,
MED26 (UniProt O95402),,inactive: 0.149,,inactive: -0.279,,inactive: -0.02,inactive: 0.121,,,inactive: 0.017,,inactive: 0.062,inactive: 0.084,,inactive: -0.056,inactive: 0.123,,,,

# Quoted from the listing.
# MED6 (UniProt O75586) | log2 fold change [14]: inactive: -0.479
# MCOLN3 (UniProt Q8TDD5) | log2 fold change [1]: inactive: 0.244

# From the supplement of paper PMC10849652
